For three molecules, binding results are on record in paper PMC10456134.

Amino acid sequences for entries named in this document (tags omitted).
UniProt P14618: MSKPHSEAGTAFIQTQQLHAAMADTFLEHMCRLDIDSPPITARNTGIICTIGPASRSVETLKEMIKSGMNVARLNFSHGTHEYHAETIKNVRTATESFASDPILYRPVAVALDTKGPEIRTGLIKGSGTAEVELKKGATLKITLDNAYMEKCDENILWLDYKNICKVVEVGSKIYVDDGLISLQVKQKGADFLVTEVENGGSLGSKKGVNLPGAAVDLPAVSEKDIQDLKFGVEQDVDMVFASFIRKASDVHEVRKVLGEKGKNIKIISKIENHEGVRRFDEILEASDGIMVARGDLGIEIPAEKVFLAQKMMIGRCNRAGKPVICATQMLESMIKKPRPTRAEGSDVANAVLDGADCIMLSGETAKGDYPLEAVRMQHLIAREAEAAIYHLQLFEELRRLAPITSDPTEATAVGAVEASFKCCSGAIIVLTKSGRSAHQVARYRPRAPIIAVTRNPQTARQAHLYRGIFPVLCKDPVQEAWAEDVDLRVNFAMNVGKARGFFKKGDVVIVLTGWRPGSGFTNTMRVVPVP

Assay [1] deals with T1, Flag-tagged full-length USP4 (human) (UniProt Q13107).
T1 sequence: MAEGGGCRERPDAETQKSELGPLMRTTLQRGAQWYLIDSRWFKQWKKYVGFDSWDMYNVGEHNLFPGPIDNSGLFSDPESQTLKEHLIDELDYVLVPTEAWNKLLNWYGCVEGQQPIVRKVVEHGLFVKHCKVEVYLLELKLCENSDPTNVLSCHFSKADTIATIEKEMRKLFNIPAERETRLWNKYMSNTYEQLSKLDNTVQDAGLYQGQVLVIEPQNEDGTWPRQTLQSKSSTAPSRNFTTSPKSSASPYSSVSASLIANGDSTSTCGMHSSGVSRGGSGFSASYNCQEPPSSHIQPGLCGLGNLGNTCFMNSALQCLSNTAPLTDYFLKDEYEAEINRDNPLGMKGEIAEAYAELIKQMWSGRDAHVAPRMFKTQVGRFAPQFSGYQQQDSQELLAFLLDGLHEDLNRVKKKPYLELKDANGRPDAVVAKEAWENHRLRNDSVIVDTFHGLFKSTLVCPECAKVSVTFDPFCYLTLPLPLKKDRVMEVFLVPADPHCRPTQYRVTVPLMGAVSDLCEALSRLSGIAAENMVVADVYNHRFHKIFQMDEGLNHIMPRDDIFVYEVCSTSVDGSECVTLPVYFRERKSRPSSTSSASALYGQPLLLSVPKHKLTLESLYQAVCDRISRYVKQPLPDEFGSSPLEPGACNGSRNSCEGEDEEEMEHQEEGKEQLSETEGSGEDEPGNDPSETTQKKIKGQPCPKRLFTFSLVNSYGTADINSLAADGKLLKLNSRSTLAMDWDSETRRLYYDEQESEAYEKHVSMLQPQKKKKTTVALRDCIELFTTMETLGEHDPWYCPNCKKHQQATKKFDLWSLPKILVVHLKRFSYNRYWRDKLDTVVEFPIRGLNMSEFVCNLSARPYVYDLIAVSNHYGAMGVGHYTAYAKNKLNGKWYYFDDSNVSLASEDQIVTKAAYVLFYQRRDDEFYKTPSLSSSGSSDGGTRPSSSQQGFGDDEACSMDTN
Nature of the assay: co-IP; HEK-293T cells co-transfected with Flag-tagged USP4 and Myc-tagged PKM2 constructs; whole cell lysates immunoprecipitated with Myc or Flag antibody, protein A/G PLUS-Agarose, immunoblot with the other tag's antibody; control serum. (In general: In western blotting, separated proteins are transferred to a membrane and probed.)

Assay [2] concerns the target T2, endogenous USP4 (human (endogenous in AGS and HGC-27)) (UniProt Q13107).
T2 sequence: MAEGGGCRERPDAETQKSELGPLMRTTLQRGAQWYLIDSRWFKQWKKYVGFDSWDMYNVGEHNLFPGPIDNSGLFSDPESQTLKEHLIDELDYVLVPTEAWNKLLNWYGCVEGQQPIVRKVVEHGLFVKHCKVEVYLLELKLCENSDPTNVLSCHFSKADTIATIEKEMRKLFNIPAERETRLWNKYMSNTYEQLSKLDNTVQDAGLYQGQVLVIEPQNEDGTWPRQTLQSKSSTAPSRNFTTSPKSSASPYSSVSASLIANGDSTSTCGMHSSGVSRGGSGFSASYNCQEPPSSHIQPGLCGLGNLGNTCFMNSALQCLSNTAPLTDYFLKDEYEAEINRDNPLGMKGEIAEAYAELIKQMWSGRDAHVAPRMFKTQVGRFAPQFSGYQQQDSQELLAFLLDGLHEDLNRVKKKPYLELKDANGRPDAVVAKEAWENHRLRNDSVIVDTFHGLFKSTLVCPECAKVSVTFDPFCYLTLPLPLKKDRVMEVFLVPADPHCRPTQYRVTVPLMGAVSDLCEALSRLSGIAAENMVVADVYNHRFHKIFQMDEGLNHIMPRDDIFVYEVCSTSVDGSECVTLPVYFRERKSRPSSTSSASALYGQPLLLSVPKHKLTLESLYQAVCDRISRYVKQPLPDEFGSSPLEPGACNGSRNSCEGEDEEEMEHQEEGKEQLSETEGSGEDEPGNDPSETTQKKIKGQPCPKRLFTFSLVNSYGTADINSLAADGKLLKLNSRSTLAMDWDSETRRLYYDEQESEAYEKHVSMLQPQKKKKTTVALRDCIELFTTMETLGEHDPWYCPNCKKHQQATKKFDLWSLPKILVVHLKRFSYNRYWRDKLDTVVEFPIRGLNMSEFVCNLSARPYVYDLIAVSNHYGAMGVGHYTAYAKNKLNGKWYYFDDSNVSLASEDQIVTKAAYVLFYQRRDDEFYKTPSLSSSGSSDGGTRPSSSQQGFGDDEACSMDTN
Nature of the assay: co-IP; endogenous proteins; AGS and HGC-27 cell lysates immunoprecipitated with the USP4 antibody, immunoblot with the PKM2 antibody; normal rabbit IgG as control.

Assay [3] deals with Myc-tagged full-length PKM2 (human) (UniProt P14618). Nature of the assay: co-IP; HEK-293T cells co-transfected with Flag-tagged USP4 and Myc-tagged PKM2 constructs; whole cell lysates immunoprecipitated with Myc or Flag antibody, protein A/G PLUS-Agarose, immunoblot with the other tag's antibody; control serum.

No constants are given. Whether binding was seen depends on the method and setting. Binding seen in cells or lysates may run through a third protein. Some binding calls cover weakened binding; strength is not graded here. For part of these data: Where a sequence is shown, tags or fusion partners need not be part of it.

For the molecule “Myc-tagged full-length PKM2 (from UniProt P14618 1-531) (enzyme)”, in assay [1], the binding entry is “binds”.
“endogenous PKM2 (from UniProt P14618 1-531) (enzyme)”: the binding result in assay [2] is listed as “binds”.

B1: Flag-tagged full-length USP4 (enzyme, UniProt Q13107 1-963)
chain: MAEGGGCRERPDAETQKSELGPLMRTTLQRGAQWYLIDSRWFKQWKKYVGFDSWDMYNVGEHNLFPGPIDNSGLFSDPESQTLKEHLIDELDYVLVPTEAWNKLLNWYGCVEGQQPIVRKVVEHGLFVKHCKVEVYLLELKLCENSDPTNVLSCHFSKADTIATIEKEMRKLFNIPAERETRLWNKYMSNTYEQLSKLDNTVQDAGLYQGQVLVIEPQNEDGTWPRQTLQSKSSTAPSRNFTTSPKSSASPYSSVSASLIANGDSTSTCGMHSSGVSRGGSGFSASYNCQEPPSSHIQPGLCGLGNLGNTCFMNSALQCLSNTAPLTDYFLKDEYEAEINRDNPLGMKGEIAEAYAELIKQMWSGRDAHVAPRMFKTQVGRFAPQFSGYQQQDSQELLAFLLDGLHEDLNRVKKKPYLELKDANGRPDAVVAKEAWENHRLRNDSVIVDTFHGLFKSTLVCPECAKVSVTFDPFCYLTLPLPLKKDRVMEVFLVPADPHCRPTQYRVTVPLMGAVSDLCEALSRLSGIAAENMVVADVYNHRFHKIFQMDEGLNHIMPRDDIFVYEVCSTSVDGSECVTLPVYFRERKSRPSSTSSASALYGQPLLLSVPKHKLTLESLYQAVCDRISRYVKQPLPDEFGSSPLEPGACNGSRNSCEGEDEEEMEHQEEGKEQLSETEGSGEDEPGNDPSETTQKKIKGQPCPKRLFTFSLVNSYGTADINSLAADGKLLKLNSRSTLAMDWDSETRRLYYDEQESEAYEKHVSMLQPQKKKKTTVALRDCIELFTTMETLGEHDPWYCPNCKKHQQATKKFDLWSLPKILVVHLKRFSYNRYWRDKLDTVVEFPIRGLNMSEFVCNLSARPYVYDLIAVSNHYGAMGVGHYTAYAKNKLNGKWYYFDDSNVSLASEDQIVTKAAYVLFYQRRDDEFYKTPSLSSSGSSDGGTRPSSSQQGFGDDEACSMDTN
On to B1, for which the binding result in assay [3] is “binds”.
